Binding data for one substance are collected here from patent publication US20220251568A1.

The chains behind the UniProt entries cited, without tags or fusion partners. Residues count along the entry.
UniProt Q13464, residues 2-1354: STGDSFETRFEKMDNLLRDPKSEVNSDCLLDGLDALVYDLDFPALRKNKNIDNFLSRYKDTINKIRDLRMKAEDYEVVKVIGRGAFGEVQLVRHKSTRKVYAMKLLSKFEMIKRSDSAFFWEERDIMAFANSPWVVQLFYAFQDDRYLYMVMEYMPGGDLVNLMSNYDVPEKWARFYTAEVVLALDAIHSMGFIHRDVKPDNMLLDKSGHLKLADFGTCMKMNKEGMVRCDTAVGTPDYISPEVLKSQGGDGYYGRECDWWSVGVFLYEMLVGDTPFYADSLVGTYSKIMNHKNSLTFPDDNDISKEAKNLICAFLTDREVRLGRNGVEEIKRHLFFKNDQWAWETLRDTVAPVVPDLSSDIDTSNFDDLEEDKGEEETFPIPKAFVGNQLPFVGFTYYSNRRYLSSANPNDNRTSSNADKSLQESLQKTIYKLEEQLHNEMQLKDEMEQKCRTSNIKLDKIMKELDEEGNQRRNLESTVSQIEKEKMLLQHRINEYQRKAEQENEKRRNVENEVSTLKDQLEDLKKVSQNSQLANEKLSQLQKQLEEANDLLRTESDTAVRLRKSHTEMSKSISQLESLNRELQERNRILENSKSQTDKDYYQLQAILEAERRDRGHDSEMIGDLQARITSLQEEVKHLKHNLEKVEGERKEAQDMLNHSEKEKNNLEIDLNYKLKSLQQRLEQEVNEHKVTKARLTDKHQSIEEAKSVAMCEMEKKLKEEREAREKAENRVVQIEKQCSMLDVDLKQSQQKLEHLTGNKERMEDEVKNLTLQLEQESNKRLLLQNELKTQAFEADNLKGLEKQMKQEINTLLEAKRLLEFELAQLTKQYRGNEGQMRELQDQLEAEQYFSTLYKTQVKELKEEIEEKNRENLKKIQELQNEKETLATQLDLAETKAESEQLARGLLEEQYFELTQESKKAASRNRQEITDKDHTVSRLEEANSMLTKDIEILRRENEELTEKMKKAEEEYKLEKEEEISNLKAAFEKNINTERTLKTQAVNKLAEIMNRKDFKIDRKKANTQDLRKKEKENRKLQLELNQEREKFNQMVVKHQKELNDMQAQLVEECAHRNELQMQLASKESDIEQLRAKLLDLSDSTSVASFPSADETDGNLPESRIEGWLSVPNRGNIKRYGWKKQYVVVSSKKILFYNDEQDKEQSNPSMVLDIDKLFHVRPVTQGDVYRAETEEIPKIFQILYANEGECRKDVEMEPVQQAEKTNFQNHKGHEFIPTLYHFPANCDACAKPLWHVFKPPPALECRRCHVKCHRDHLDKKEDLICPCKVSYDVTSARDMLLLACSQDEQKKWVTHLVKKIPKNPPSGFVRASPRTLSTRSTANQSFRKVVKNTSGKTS

Experiment [1] deals with T1, RND3, referred to alternately as RhoE (human) (UniProt P61587).
T1 sequence: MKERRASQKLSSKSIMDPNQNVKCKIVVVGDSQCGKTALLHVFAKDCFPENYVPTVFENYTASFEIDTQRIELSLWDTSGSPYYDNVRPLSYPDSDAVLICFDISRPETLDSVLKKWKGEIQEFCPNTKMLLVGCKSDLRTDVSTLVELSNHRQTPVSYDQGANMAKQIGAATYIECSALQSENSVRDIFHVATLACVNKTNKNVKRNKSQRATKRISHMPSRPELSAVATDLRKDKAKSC
The experiment in a line: co-IP, HEK293 cells.

Experiment [2] deals with T2, RhoEα, short isoform of RhoE (human) (UniProt P61587).
T2 sequence: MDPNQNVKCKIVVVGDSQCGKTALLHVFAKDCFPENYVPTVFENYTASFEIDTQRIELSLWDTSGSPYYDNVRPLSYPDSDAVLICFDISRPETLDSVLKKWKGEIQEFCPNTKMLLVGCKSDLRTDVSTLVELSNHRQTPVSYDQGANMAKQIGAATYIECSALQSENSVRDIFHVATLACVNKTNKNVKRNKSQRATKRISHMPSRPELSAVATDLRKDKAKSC
In words: co-IP, HEK293 cells.

These are yes or no findings as the source states them, for the method shown. In cells and extracts the contact can be indirect. Some results given as binding are weak or reduced against the parent protein; the word gives no strength.

On to “Rho-associated coiled-coil kinase 1 (ROCK1) (from UniProt Q13464 2-1354) (enzyme)”, for which the binding entry in experiment [1] and in experiment [2] was “binds” each time.
